Test results: the supplement of paper PMC10849652
This is one part of the list.

Chains of the proteins cited; added tags and fusions are not shown. Lines headed by an entry give the natural chain unless they say otherwise; changes in a name come on top.
UniProt O95716: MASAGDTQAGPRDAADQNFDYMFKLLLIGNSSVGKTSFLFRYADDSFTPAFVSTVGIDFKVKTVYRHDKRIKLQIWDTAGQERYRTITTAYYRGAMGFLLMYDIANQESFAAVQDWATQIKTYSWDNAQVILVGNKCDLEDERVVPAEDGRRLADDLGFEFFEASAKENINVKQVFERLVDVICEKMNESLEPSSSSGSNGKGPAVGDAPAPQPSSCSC
UniProt Q5T8P6: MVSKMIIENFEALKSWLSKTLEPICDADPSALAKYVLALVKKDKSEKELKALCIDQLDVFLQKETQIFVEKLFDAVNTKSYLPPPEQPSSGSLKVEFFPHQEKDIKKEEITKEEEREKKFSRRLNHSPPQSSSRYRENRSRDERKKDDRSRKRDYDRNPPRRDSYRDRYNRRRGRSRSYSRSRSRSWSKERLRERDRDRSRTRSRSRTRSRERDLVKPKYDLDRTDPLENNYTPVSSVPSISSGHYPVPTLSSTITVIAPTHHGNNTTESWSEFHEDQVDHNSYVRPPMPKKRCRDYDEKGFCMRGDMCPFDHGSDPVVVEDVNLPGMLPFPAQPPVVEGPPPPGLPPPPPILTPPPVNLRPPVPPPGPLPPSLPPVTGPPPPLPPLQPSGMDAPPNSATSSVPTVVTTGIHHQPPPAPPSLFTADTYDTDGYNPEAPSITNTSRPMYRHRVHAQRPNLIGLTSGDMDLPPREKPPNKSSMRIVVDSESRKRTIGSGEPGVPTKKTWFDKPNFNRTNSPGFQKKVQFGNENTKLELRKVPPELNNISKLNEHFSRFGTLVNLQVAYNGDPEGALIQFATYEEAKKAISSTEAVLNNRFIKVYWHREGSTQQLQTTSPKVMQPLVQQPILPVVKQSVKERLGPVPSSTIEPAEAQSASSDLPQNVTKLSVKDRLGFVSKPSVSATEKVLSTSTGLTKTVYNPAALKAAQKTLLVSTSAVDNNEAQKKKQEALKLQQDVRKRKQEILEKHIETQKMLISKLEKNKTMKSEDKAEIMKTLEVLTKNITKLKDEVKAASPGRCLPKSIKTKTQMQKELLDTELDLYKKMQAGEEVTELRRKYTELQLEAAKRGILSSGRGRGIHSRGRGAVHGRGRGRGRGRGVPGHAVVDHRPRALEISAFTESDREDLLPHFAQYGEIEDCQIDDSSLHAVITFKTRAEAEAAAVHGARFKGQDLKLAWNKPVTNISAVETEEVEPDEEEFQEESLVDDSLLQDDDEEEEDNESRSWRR
UniProt Q15291, whole entry, looked up: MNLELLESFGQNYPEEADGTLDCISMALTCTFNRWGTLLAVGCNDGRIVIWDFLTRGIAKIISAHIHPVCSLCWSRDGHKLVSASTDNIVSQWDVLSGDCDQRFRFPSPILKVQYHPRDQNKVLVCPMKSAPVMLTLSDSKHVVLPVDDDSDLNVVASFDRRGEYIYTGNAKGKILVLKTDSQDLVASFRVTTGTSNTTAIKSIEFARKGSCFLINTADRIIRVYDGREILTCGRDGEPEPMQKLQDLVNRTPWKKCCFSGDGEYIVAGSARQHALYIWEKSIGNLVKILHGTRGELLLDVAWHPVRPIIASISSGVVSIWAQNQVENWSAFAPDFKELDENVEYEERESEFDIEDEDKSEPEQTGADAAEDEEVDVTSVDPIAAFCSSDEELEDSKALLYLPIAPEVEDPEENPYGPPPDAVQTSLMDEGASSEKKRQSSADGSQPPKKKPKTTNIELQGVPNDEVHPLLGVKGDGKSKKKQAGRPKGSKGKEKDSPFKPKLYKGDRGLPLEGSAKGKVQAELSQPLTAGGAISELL
UniProt Q99708: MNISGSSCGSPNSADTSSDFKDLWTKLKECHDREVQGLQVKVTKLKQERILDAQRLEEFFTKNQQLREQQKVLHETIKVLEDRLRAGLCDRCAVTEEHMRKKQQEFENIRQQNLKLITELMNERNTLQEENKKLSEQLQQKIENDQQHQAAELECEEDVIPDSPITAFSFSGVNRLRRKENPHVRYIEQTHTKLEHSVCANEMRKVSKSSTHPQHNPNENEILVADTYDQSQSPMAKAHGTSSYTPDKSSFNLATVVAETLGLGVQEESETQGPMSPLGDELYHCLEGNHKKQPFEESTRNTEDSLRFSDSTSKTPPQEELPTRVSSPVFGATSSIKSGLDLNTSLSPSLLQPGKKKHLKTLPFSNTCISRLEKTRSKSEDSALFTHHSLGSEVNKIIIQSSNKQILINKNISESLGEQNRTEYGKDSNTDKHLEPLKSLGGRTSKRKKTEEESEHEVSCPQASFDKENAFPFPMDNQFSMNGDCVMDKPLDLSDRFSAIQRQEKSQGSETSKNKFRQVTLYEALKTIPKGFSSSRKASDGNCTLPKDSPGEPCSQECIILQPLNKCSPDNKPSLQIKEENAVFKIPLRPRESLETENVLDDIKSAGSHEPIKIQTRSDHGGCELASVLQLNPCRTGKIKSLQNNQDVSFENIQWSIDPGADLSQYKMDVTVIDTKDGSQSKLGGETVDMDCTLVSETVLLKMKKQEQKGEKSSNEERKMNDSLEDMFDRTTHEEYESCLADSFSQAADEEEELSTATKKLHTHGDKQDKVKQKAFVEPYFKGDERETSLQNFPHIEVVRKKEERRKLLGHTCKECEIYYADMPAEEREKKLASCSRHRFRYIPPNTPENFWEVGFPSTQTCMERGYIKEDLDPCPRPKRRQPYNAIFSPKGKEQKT
UniProt Q86YS3: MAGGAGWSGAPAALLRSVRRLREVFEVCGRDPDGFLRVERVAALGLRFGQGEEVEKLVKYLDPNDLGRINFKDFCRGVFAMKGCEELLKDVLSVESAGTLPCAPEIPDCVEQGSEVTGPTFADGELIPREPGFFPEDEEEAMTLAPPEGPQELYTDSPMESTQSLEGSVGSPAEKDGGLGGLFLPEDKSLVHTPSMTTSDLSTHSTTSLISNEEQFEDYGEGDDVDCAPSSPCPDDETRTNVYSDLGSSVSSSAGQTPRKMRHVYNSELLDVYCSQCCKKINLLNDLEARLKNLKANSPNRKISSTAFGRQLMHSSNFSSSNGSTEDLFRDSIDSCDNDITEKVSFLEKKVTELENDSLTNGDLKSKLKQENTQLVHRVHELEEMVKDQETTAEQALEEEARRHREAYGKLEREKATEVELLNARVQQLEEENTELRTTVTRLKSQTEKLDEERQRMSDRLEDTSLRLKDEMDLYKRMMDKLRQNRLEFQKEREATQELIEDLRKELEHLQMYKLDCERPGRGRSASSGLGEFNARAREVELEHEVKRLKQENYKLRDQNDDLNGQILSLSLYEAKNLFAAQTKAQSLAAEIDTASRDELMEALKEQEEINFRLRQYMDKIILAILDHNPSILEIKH
UniProt Q9NW13: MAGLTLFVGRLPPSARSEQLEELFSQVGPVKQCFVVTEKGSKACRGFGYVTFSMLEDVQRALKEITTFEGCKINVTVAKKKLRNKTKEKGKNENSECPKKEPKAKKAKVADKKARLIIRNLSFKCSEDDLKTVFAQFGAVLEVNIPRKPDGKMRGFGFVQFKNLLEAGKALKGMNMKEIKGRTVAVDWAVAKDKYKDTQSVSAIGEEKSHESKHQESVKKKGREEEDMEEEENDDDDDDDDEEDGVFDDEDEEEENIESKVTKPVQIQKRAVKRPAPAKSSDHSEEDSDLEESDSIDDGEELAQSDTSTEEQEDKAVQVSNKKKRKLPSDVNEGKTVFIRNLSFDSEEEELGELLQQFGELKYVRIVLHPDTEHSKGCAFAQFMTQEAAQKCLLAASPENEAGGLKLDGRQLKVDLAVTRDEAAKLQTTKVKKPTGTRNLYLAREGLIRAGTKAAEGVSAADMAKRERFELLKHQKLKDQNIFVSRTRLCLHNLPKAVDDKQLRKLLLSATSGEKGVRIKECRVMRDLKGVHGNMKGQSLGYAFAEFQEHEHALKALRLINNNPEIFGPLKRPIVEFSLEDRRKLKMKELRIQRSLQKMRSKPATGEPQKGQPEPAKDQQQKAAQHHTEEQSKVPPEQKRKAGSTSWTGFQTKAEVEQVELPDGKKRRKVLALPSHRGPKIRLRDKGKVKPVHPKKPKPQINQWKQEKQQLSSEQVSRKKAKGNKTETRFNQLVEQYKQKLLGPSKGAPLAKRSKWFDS
UniProt Q9HD47: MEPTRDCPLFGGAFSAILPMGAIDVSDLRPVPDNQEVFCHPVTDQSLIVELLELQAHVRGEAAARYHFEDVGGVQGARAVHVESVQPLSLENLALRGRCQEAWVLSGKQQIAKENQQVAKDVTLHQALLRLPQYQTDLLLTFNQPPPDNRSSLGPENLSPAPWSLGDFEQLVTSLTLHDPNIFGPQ
UniProt Q6VN20, whole entry, looked up: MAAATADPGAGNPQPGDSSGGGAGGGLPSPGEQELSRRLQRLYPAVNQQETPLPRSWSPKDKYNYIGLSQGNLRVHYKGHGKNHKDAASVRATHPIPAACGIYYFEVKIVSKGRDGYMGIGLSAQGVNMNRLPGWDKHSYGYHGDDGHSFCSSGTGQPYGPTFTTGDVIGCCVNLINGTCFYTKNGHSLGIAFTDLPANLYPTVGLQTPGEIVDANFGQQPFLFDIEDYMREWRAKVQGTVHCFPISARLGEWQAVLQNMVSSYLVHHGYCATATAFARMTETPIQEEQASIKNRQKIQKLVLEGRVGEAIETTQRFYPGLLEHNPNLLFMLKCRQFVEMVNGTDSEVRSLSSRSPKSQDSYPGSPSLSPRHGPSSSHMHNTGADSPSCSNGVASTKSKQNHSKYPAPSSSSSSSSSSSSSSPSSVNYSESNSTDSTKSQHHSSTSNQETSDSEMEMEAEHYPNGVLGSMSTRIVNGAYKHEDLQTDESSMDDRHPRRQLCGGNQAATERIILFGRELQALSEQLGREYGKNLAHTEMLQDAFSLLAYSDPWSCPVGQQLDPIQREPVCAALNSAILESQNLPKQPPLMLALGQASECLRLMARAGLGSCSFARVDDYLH
UniProt Q14644: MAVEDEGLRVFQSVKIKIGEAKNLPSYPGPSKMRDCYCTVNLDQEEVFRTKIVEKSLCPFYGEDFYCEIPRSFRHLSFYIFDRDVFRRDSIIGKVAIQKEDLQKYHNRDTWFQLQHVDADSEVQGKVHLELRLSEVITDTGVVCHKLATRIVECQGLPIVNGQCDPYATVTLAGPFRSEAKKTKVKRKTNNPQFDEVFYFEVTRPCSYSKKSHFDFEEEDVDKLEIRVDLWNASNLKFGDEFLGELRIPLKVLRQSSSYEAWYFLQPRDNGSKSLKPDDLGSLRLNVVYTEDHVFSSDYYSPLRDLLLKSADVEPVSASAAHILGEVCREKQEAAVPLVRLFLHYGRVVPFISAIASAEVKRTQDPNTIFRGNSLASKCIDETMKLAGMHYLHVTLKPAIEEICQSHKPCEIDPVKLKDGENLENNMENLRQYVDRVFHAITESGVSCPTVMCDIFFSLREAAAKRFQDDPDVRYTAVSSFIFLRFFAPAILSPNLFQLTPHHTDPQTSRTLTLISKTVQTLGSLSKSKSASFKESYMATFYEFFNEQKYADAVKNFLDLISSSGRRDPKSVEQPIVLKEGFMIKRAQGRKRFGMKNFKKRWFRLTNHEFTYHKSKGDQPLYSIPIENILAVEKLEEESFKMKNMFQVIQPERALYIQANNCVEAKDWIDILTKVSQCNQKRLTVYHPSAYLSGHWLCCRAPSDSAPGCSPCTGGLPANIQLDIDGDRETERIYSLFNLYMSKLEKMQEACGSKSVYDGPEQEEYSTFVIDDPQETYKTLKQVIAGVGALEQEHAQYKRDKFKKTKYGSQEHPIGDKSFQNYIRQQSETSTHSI
UniProt Q86X27: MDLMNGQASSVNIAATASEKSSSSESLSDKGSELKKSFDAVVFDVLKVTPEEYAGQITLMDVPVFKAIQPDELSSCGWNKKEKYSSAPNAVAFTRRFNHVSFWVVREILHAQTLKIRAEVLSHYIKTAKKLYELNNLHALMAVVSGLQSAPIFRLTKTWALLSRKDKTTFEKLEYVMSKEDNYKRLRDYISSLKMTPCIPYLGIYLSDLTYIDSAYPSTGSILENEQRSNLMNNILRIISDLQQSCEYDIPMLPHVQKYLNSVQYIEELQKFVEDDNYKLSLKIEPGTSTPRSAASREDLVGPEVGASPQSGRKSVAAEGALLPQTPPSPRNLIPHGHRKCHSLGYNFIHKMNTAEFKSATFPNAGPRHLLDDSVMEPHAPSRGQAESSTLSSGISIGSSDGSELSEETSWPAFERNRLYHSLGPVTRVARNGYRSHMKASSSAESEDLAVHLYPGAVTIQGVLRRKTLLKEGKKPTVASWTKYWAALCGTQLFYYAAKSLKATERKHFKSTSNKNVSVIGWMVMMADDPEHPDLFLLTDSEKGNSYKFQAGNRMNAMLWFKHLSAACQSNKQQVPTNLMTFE

How the values were obtained:
Assay in all cases: log2 fold change, soluble protein after heating vs DMSO (PISA); higher = thermal stabilisation; K562 cells, 10 uM, 30 min; active = over 0.2 and 3.5 SD of the protein, either way, in both replicates (recomputed)
sotrastaurin = compound: CN1CCN(c2nc(C3=C(c4c[nH]c5ccccc45)C(=O)NC3=O)c3ccccc3n2)CC1 [sotrastaurin]
Method in brief: (§1)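 Thermal stability values are relative to control samples and come from duplicates. They are expressed as log2 fold changes. For measurement, K562 cells (2×10^6 cells/mL) received 10 μM compound for 30 min, and aliquots were heated for 3 min over 48°C-58°C, pooled, and extracted at 4°C in PBS with 0.5% NP-40. Soluble protein, the supernatant after 21,000xg for 90 min, was quantified by TMTpro 16plex LC-MS/MS with equalised channel sums.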

[1] = compound: CNC(=O)C1=CC=CC=C1NC2=NC(=NC=C2Cl)NC3=C(C=C(C=C3)N4CCOCC4)OC
Method in brief: as §1

Tubastatin A = compound: CN1CCc2c(c3ccccc3n2Cc2ccc(C(=O)NO)cc2)C1 [Tubastatin A]
Method in brief: as §1

defactinib = compound: CNC(=O)c1ccc(Nc2ncc(C(F)(F)F)c(NCc3nccnc3N(C)S(C)(=O)=O)n2)cc1 [defactinib]
Method in brief: as §1

rucaparib = compound: CNCc1ccc(-c2[nH]c3cc(F)cc4c3c2CCNC4=O)cc1 [rucaparib]
Method in brief: as §1

encorafenib = compound: COC(=O)N[C@@H](C)CNc1nccc(-c2cn(C(C)C)nc2-c2cc(Cl)cc(NS(C)(=O)=O)c2F)n1 [encorafenib]
Method in brief: as §1

[2] = compound: COC(=O)[C@H](CCSC)NC(=O)C1=C(C=C(C=C1)NC[C@H](CS)N)C2=CC=CC=C2
Method in brief: as §1

saracatinib = compound: CN1CCN(CCOc2cc(OC3CCOCC3)c3c(Nc4c(Cl)ccc5c4OCO5)ncnc3c2)CC1 [saracatinib]
Method in brief: as §1

[3] = compound: CNc1nc(-c2ccc3c(N)n[nH]c3c2)cc(N2C[C@@H](C(=O)NC3CCCCC3)CC[C@H]2C)n1
Method in brief: as §1

alvocidib = compound: CN1CC[C@H](c2c(O)cc(O)c3c(=O)cc(-c4ccccc4Cl)oc23)[C@H](O)C1 [alvocidib]
Method in brief: as §1

Measured: log2 fold change

RAI1 (UniProt Q7Z5J4)
inactive: sotrastaurin 0.357 | [1] -0.159

RAB3IL1 (UniProt E9PK89)
inactive: sotrastaurin -0.082 | Tubastatin A -0.095 | [1] -0.011 | defactinib -0.016 | rucaparib -0.074 | encorafenib 0.084 | [2] 0.045

RAB3D (UniProt O95716)
inactive: saracatinib 0.295 | Tubastatin A 0.024 | [1] 0.022 | defactinib 0.064 | rucaparib -0.021 | [3] -0.016 | encorafenib -0.043 | [2] -0.094

RBM26 isoform 3 (UniProt Q5T8P6)
inactive: sotrastaurin -0.052

RBBP5 isoform 2 (UniProt Q15291)
inactive: sotrastaurin 0.091 | Tubastatin A -0.035 | [1] -0.127 | defactinib -0.044 | rucaparib 0.102 | encorafenib 0 | [2] 0.196

RBKS (UniProt Q9H477)
inactive: defactinib -0.012 | rucaparib -0.286 | encorafenib 0.173 | [2] 0.061

RBBP8 isoform 2 (UniProt Q99708)
inactive: Tubastatin A 0.419 | [1] -0.032

RAB11FIP4 (UniProt Q86YS3)
inactive: sotrastaurin -0.019

RBM28 (UniProt Q9NW13)
inactive: sotrastaurin 0.011 | alvocidib -0.141 | [1] 0.079 | rucaparib 0.444 | encorafenib 0.121

RANGRF (UniProt Q9HD47)
inactive: rucaparib 0.044 | encorafenib -0.063

RANBP10 (UniProt Q6VN20)
inactive: sotrastaurin -0.262 | alvocidib -0.033 | Tubastatin A 0.046 | [1] 0.087 | defactinib -0.073 | rucaparib -0.022 | encorafenib 0.004 | [2] -0.073

Two entries picked at random from the list so far, as already listed:
RANBP10 (UniProt Q6VN20)
inactive: sotrastaurin -0.262 | alvocidib -0.033 | Tubastatin A 0.046 | [1] 0.087 | defactinib -0.073 | rucaparib -0.022 | encorafenib 0.004 | [2] -0.073

RAB11FIP4 (UniProt Q86YS3)
inactive: sotrastaurin -0.019

(next part)

RASA3 (UniProt Q14644)
inactive: saracatinib -0.748 | alvocidib -0.043 | [3] 0.347

RALGPS2 (UniProt Q86X27)
inactive: saracatinib -0.042 | Tubastatin A 0.18 | [1] -0.098 | defactinib 0.176 | rucaparib -0.133 | [3] 0.159 | encorafenib 0.425 | [2] -0.101

RAP1B (UniProt F5GWU8)
inactive: saracatinib 0.104 | alvocidib -0.546 | defactinib -0.014 | [3] 0.174 | [2] 0.012
